The other results are listed elsewhere or left out.
What was measured:
Assay in all cases: log2 fold change, soluble protein after heating vs DMSO (PISA); higher = thermal stabilisation; K562 lysate, 10 uM; active = over 0.2 and 3.5 SD of the protein, either way, in both replicates (recomputed)
vemurafenib = compound: CCCS(=O)(=O)Nc1ccc(F)c(C(=O)c2c[nH]c3ncc(-c4ccc(Cl)cc4)cc23)c1F [vemurafenib]
Method in brief: (§1)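 To prepare the extract, K562 pellets were dounce-homogenised in PBS pH 7.4 with 1 mM MgCl2, giving crude material at 1 mg/mL protein. This was treated with 10 μM compound for 30 min, then heated in aliquots for 3 min over 48°C-58°C before pooling and addition of NP-40 to 0.5% at 4°C. Centrifugation at 21,000xg for 90 min left soluble protein in the supernatant, which TMTpro 16plex LC-MS/MS quantified with equalised channel sums. Results are log-two fold changes in thermal stability compared with solvent controls, from duplicates.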

By UniProt entry, the sequences of proteins in these tests, tags left out. Where a name states a change or a piece, a line headed by the entry shows the natural chain unless it says otherwise.
UniProt P43365, whole entry, looked up: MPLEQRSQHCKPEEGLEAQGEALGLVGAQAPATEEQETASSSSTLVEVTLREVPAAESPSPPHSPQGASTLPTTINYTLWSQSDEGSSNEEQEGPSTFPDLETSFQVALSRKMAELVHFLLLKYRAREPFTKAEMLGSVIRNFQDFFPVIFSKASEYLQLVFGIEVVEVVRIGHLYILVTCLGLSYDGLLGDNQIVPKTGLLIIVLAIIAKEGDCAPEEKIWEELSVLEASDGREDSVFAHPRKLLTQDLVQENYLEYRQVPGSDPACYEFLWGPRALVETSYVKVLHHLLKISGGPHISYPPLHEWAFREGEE
UniProt Q12851: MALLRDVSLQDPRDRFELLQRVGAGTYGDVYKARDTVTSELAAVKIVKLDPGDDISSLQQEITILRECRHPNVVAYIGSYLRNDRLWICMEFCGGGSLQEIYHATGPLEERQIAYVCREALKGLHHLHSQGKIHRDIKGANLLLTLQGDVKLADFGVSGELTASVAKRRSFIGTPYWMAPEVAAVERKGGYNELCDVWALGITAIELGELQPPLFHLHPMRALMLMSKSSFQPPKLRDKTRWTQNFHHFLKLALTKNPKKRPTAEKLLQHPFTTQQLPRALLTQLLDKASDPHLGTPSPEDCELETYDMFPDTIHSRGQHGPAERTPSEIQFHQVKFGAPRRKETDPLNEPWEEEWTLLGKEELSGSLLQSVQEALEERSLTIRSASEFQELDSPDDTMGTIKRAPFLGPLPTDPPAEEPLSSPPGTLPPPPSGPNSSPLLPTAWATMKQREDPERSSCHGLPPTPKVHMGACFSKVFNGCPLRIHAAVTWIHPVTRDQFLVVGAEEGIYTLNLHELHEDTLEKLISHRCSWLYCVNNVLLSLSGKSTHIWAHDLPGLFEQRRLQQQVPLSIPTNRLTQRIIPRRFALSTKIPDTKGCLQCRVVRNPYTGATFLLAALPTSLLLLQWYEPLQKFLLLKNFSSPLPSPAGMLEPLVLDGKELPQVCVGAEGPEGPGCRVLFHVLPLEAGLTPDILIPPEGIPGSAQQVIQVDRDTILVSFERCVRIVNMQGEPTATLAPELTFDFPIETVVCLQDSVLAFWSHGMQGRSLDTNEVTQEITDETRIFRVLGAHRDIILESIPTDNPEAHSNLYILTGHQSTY
UniProt P27816: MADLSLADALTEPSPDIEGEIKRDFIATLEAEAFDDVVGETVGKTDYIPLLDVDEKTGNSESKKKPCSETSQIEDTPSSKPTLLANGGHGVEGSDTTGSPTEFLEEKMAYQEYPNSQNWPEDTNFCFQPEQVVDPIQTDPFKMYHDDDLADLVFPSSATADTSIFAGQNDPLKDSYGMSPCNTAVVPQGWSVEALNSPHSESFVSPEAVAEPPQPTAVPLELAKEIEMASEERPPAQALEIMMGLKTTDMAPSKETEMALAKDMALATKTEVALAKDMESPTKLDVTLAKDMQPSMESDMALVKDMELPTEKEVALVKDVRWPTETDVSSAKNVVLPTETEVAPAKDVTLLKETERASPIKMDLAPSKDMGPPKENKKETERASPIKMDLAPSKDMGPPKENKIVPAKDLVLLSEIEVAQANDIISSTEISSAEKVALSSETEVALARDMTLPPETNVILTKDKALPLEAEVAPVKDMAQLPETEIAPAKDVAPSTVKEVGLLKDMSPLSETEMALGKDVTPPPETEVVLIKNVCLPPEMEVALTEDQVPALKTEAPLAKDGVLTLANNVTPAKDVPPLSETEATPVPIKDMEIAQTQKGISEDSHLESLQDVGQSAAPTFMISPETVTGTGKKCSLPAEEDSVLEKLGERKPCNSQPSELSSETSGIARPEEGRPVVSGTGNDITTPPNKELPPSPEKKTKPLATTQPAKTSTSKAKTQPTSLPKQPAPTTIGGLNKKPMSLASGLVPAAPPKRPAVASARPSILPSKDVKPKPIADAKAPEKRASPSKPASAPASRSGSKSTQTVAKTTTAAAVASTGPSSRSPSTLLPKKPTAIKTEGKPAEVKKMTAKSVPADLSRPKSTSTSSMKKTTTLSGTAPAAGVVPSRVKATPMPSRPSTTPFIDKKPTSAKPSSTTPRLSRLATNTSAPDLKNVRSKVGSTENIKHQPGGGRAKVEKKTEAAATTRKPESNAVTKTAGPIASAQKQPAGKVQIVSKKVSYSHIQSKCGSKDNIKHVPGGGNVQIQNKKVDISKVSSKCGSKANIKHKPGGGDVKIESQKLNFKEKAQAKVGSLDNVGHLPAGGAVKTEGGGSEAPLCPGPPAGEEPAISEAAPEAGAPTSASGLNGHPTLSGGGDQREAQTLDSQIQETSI
UniProt Q5SRI9: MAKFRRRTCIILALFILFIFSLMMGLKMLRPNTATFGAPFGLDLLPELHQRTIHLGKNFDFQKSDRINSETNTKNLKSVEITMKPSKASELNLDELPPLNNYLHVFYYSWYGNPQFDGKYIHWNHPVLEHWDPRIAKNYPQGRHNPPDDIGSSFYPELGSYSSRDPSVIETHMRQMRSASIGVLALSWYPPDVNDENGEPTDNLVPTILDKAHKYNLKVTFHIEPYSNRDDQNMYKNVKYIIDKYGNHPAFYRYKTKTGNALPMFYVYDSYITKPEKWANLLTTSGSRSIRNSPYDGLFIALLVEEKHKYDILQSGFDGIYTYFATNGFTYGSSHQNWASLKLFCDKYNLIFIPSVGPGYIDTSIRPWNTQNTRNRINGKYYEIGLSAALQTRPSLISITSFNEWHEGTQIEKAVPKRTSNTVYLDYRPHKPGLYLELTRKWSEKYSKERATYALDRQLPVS
UniProt Q9ULX9: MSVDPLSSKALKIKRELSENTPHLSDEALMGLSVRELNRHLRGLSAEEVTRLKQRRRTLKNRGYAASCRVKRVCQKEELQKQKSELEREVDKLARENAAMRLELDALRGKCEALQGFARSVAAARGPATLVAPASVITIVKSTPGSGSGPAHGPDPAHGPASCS
UniProt Q9Y4K4: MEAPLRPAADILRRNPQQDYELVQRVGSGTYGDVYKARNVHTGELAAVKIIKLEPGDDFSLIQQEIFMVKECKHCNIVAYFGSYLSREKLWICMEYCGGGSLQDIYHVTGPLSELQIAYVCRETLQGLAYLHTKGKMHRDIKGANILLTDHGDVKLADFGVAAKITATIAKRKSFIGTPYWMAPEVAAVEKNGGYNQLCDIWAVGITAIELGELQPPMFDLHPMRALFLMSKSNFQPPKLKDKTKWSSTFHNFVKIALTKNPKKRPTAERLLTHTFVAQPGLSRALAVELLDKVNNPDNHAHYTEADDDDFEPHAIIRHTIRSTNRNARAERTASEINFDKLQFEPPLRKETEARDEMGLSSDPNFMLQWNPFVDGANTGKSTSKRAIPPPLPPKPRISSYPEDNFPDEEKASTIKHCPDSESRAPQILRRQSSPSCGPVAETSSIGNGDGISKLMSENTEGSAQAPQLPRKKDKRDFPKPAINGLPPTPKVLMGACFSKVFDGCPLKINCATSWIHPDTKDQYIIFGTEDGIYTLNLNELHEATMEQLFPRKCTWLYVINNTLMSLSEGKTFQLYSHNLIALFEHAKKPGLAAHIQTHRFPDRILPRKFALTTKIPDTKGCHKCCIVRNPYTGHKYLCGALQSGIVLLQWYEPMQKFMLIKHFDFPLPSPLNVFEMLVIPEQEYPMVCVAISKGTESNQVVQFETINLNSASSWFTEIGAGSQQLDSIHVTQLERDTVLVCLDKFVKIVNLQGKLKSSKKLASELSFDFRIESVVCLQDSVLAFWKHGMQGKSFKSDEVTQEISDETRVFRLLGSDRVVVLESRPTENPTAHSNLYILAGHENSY
UniProt P10636, whole entry, looked up: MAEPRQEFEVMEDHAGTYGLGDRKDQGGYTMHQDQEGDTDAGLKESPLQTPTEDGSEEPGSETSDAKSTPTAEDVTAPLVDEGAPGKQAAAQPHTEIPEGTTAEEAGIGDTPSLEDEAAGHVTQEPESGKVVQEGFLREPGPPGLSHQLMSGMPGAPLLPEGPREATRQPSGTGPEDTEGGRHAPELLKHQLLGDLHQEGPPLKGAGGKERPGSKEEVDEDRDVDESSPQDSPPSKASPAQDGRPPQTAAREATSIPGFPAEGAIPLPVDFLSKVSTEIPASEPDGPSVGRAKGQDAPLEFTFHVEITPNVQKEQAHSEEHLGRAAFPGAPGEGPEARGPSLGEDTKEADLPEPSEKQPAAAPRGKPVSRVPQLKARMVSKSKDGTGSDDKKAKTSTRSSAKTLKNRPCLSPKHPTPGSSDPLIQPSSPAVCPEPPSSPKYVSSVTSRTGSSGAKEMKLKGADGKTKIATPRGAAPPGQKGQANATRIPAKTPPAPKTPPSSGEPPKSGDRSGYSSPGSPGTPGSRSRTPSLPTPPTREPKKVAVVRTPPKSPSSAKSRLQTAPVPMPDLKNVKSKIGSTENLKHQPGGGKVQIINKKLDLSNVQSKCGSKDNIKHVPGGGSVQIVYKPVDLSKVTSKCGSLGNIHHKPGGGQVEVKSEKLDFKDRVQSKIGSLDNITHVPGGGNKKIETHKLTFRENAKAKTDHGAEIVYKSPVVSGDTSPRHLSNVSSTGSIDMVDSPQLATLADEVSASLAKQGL
UniProt Q16553: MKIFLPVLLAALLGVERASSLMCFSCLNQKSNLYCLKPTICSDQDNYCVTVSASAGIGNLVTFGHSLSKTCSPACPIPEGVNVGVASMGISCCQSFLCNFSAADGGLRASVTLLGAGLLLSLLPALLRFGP
UniProt O60337: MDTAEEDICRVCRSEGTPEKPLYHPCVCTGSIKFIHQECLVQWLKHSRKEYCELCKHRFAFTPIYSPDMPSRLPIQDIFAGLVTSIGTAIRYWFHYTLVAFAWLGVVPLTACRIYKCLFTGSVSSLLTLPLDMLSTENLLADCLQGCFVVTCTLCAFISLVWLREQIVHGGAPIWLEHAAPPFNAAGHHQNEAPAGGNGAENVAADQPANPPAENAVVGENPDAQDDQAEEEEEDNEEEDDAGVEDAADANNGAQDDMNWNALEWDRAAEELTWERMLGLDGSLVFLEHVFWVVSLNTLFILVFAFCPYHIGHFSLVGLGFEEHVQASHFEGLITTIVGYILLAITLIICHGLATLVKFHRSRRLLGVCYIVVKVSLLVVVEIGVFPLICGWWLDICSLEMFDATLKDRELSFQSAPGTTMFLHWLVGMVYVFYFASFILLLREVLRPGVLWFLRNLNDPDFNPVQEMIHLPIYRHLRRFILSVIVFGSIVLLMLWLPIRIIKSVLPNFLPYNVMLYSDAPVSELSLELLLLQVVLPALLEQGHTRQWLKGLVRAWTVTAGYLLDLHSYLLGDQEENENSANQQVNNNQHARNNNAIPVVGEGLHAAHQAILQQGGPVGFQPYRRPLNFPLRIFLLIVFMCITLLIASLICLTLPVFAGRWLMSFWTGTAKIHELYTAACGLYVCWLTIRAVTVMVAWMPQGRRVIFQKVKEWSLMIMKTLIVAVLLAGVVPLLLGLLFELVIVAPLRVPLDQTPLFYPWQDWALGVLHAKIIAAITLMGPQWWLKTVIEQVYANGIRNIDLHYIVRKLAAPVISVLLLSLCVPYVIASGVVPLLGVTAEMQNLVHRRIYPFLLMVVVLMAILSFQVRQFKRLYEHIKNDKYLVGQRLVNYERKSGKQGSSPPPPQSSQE
UniProt Q9Y5V3: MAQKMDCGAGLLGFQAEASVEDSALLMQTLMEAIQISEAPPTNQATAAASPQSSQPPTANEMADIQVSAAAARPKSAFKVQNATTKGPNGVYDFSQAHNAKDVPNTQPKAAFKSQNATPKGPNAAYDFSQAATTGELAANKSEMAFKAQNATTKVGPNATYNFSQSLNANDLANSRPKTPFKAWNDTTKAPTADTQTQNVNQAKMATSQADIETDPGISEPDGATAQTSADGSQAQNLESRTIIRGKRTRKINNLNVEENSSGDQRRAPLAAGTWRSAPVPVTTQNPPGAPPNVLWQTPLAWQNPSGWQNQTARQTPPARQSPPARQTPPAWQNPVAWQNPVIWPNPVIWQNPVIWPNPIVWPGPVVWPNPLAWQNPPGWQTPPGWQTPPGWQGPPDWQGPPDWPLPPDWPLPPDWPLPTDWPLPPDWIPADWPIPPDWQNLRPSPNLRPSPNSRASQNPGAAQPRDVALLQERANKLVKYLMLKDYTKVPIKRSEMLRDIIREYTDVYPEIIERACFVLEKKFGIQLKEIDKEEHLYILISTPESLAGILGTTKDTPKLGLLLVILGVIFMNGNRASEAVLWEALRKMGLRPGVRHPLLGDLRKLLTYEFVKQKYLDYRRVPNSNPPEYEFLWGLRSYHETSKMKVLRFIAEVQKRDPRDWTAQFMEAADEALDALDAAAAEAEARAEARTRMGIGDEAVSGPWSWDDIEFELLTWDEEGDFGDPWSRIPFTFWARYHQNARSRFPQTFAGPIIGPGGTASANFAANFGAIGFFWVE

[1] = compound: CCCS(=O)(=O)Nc1ccc(F)c(C(=O)c2c[nH]c3ncc(Cl)cc23)c1F
Method in brief: as §1

barasertib = compound: CCN(CCCOc1ccc2c(Nc3cc(CC(=O)Nc4cccc(F)c4)[nH]n3)ncnc2c1)CCOP(=O)(O)O [barasertib]
Method in brief: as §1

[2] = compound: CC[C@@H]1C(=O)N(C)c2cnc(Nc3ccc(C(=O)NC4CCN(C)CC4)cc3OC)nc2N1C1CCCC1
Method in brief: as §1

volasertib = compound: CC[C@@H]1C(=O)N(C)c2cnc(Nc3ccc(C(=O)N[C@H]4CC[C@H](N5CCN(CC6CC6)CC5)CC4)cc3OC)nc2N1C(C)C [volasertib]
Method in brief: as §1

[3] = compound: CCn1c(C(=O)N(C2CC2)C2CC2)cc2c3c(ncn3C)c(Nc3cc(C)n(C)n3)nc21
Method in brief: as §1

[4] = compound: CCn1cc(-c2ccnc3[nH]c(-c4cccc(CN(C)C)c4)cc23)c(-c2ccc(NC(=O)N(C)C)cc2)n1
Method in brief: as §1

[5] = compound: CN1CCC(CNc2ccc3ncc(-c4cccc(OC(F)(F)F)c4)n3n2)CC1
Method in brief: as §1

saracatinib = compound: CN1CCN(CCOc2cc(OC3CCOCC3)c3c(Nc4c(Cl)ccc5c4OCO5)ncnc3c2)CC1 [saracatinib]
Method in brief: as §1

sotrastaurin = compound: CN1CCN(c2nc(C3=C(c4c[nH]c5ccccc45)C(=O)NC3=O)c3ccccc3n2)CC1 [sotrastaurin]
Method in brief: as §1

alvocidib = compound: CN1CC[C@H](c2c(O)cc(O)c3c(=O)cc(-c4ccccc4Cl)oc23)[C@H](O)C1 [alvocidib]
Method in brief: as §1

Tubastatin A = compound: CN1CCc2c(c3ccccc3n2Cc2ccc(C(=O)NO)cc2)C1 [Tubastatin A]
Method in brief: as §1

[6] = compound: CNC(=O)C1=CC=CC=C1NC2=NC(=NC=C2Cl)NC3=C(C=C(C=C3)N4CCOCC4)OC
Method in brief: as §1

defactinib = compound: CNC(=O)c1ccc(Nc2ncc(C(F)(F)F)c(NCc3nccnc3N(C)S(C)(=O)=O)n2)cc1 [defactinib]
Method in brief: as §1

[7] = compound: CNc1nc(-c2ccc3c(N)n[nH]c3c2)cc(N2C[C@@H](C(=O)NC3CCCCC3)CC[C@H]2C)n1
Method in brief: as §1

encorafenib = compound: COC(=O)N[C@@H](C)CNc1nccc(-c2cn(C(C)C)nc2-c2cc(Cl)cc(NS(C)(=O)=O)c2F)n1 [encorafenib]
Method in brief: as §1

[8] = compound: COC(=O)[C@H](CCSC)NC(=O)C1=C(C=C(C=C1)NC[C@H](CS)N)C2=CC=CC=C2
Method in brief: as §1

alisertib = compound: COc1cc(Nc2ncc3c(n2)-c2ccc(Cl)cc2C(c2c(F)cccc2OC)=NC3)ccc1C(=O)O [alisertib]
Method in brief: as §1

[9] = compound: COc1cc2nc(-c3cc(F)ccc3O)nc(N[C@@H]3CNC[C@H]3C(C)(C)O)c2cc1OC
Method in brief: as §1

gefitinib = compound: COc1cc2ncnc(Nc3ccc(F)c(Cl)c3)c2cc1OCCCN1CCOCC1 [gefitinib]
Method in brief: as §1

Target | log2 fold change (vemurafenib) | log2 fold change [1] | log2 fold change (barasertib) | log2 fold change [2] | log2 fold change (volasertib) | log2 fold change [3] | log2 fold change [4] | log2 fold change [5] | log2 fold change (saracatinib) | log2 fold change (sotrastaurin) | log2 fold change (alvocidib) | log2 fold change (Tubastatin A) | log2 fold change [6] | log2 fold change (defactinib) | log2 fold change [7] | log2 fold change (encorafenib) | log2 fold change [8] | log2 fold change (alisertib) | log2 fold change [9] | log2 fold change (gefitinib)
MACF1 (UniProt H3BQK9) | inactive: -0.006 | inactive: 0.025 | inactive: 0.033 | inactive: -0.039 | inactive: -0.079 | inactive: -0.009 | inactive: 0.026 | inactive: -0.034 | inactive: 0.042 | inactive: 0.021 | inactive: 0.003 | inactive: -0.065 | inactive: 0.01 | inactive: 0.029 | inactive: 0.022 | inactive: 0.016 | inactive: 0.04 | inactive: 0.014 | inactive: 0.023 | inactive: 0
MAGEA12 (UniProt P43365) | inactive: -0.068 | – | – | inactive: -0.043 | – | – | inactive: 0.16 | inactive: -0.014 | – | inactive: -0.04 | inactive: -0.057 | – | – | inactive: 0.018 | – | inactive: 0.12 | inactive: -0.003 | – | – | –
MAP4K2 (UniProt Q12851) | inactive: 0.198 | inactive: -0.038 | inactive: 0.009 | inactive: -0.009 | inactive: -0.035 | inactive: -0.023 | inactive: -0.317 | inactive: 0.105 | inactive: 0.005 | inactive: 0.053 | inactive: 0.111 | inactive: -0.189 | inactive: -0.02 | inactive: 0.086 | inactive: 0.055 | inactive: -0.183 | inactive: -0.234 | – | inactive: 0.219 | –
MAP3K20 (UniProt Q9NYL2) | inactive: 0.034 | inactive: 0.014 | inactive: 0.009 | inactive: 0.048 | inactive: -0.026 | inactive: 0.042 | inactive: 0.05 | inactive: -0.108 | inactive: 0.111 | inactive: 0.045 | inactive: 0.048 | inactive: -0.027 | inactive: -0.01 | inactive: -0.007 | inactive: 0.247 | inactive: 0.213 | inactive: -0.033 | – | inactive: -0.01 | inactive: 0.022
MAP4 isoform 5 (UniProt P27816) | inactive: -0.019 | inactive: -0.035 | inactive: -0.038 | inactive: 0.069 | inactive: 0.044 | inactive: -0.266 | – | – | inactive: 0.041 | inactive: -0.04 | – | inactive: 0.077 | inactive: 0.087 | inactive: -0.086 | inactive: 0.138 | inactive: -0.051 | inactive: -0.025 | inactive: 0.047 | inactive: -0.028 | inactive: 0.039
MANEA (UniProt Q5SRI9) | inactive: 0.035 | inactive: -0.019 | inactive: -0.071 | inactive: -0.001 | inactive: -0.084 | inactive: 0.005 | active: -0.627 | inactive: 0.254 | inactive: -0.059 | inactive: -0.019 | inactive: -0.078 | inactive: -0.08 | inactive: -0.016 | inactive: 0.062 | inactive: -0.09 | inactive: 0.028 | inactive: -0.07 | – | inactive: 0.041 | –
MAFF (UniProt Q9ULX9) | inactive: 0.075 | inactive: -0.027 | – | inactive: -0.029 | inactive: -0.21 | – | inactive: -0.154 | inactive: -0.019 | – | inactive: 0.027 | inactive: 0.082 | – | inactive: 0.24 | inactive: 0.189 | – | inactive: -0.131 | inactive: -0.156 | – | inactive: 0.021 | –
MAP4K5 (UniProt Q9Y4K4) | inactive: 0.185 | inactive: -0.011 | inactive: 0.23 | – | inactive: -0.069 | inactive: 0.014 | inactive: 0 | inactive: -0.007 | inactive: 0.01 | – | inactive: 0.045 | inactive: -0.021 | inactive: 0.068 | inactive: 0.125 | inactive: -0.006 | inactive: 0.009 | inactive: -0.191 | inactive: -0.027 | inactive: 0.189 | inactive: 0.086
MAPT isoform 7 (UniProt P10636) | inactive: -0.056 | inactive: 0.042 | – | – | inactive: -0.021 | – | inactive: -0.071 | inactive: -0.005 | – | inactive: -0.028 | inactive: 0.095 | – | – | inactive: -0.099 | – | – | – | – | inactive: 0.018 | –
LY6E (UniProt Q16553) | inactive: 0.068 | inactive: 0.026 | inactive: -0.02 | inactive: -0.055 | inactive: 0.022 | – | active: -1.86 | inactive: 0.533 | – | – | inactive: -0.726 | – | – | inactive: -0.024 | – | inactive: 0.03 | inactive: -0.005 | inactive: 0.029 | inactive: 0.016 | inactive: -0.013
MARCHF6 (UniProt O60337) | inactive: 0.043 | inactive: 0.052 | inactive: 0.233 | inactive: 0.038 | inactive: 0.078 | – | inactive: -0.023 | inactive: 0.013 | inactive: -0.13 | inactive: 0.034 | inactive: 0.07 | – | inactive: -0.039 | inactive: 0.046 | inactive: 0.084 | inactive: 0.08 | inactive: -0.05 | inactive: -0.321 | inactive: 0.008 | inactive: 0.019
MAGED1 isoform 2 (UniProt Q9Y5V3) | inactive: 0.111 | inactive: 0.198 | inactive: 0.101 | – | inactive: 0.02 | inactive: 0.011 | inactive: -0.034 | inactive: -0.015 | – | inactive: 0.005 | inactive: -0.162 | inactive: -0.012 | inactive: -0.114 | inactive: 0.053 | – | – | – | inactive: 0.006 | inactive: -0.125 | inactive: -0.037

Rewritten as a markdown table: part of the list above

| Target | log2 fold change (vemurafenib) | log2 fold change [1] | log2 fold change (barasertib) | log2 fold change [2] | log2 fold change (volasertib) | log2 fold change [3] | log2 fold change [4] | log2 fold change [5] | log2 fold change (saracatinib) | log2 fold change (sotrastaurin) | log2 fold change (alvocidib) | log2 fold change (Tubastatin A) | log2 fold change [6] | log2 fold change (defactinib) | log2 fold change [7] | log2 fold change (encorafenib) | log2 fold change [8] | log2 fold change (alisertib) | log2 fold change [9] | log2 fold change (gefitinib) |
| --- | --- | --- | --- | --- | --- | --- | --- | --- | --- | --- | --- | --- | --- | --- | --- | --- | --- | --- | --- | --- |
| MAFF (UniProt Q9ULX9) | inactive: 0.075 | inactive: -0.027 | – | inactive: -0.029 | inactive: -0.21 | – | inactive: -0.154 | inactive: -0.019 | – | inactive: 0.027 | inactive: 0.082 | – | inactive: 0.24 | inactive: 0.189 | – | inactive: -0.131 | inactive: -0.156 | – | inactive: 0.021 | – |
| MAPT isoform 7 (UniProt P10636) | inactive: -0.056 | inactive: 0.042 | – | – | inactive: -0.021 | – | inactive: -0.071 | inactive: -0.005 | – | inactive: -0.028 | inactive: 0.095 | – | – | inactive: -0.099 | – | – | – | – | inactive: 0.018 | – |
